Record: PubChem BioAssay AID1259259 (Sanger Institute, 2017)
Test: 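Synthetic lethal kinase partners of anchor drugs in colorectal cancer cells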 (primary screen). System: SW1463 human colorectal cancer cells. Reagent: siRNA pool against human genes. Treatment: DMSO vehicle, or one anchor drug: BYL719 at 1 µM, cetuximab at 5 µg/ml, or trametinib at 10 nM. Read-out: 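Viability as fraction of control pool 2 (non-targeting), replicate mean; knock-down robust z-score without any drug; synergy score averaged for each anchor drug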. Scale: robust z-score, knock-down alone: higher = more viable cells after knock-down; viability, knock-down alone: higher = more viable cells. Units: viability, knock-down alone in fraction of control. Hit rule: 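Knock-down called essential when its robust z-score without drug falls below -3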. Calls: active = essential: viability loss from knock-down alone; inactive = no change from knock-down alone.
Here is a random part of 794 deposited reagents. 9 of them (1.1%) were called active. 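Calls rest on knock-down alone, not drug synergy; viability values seem capped at 1.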 Entries without a mark were called inactive. Further read-outs or replicates are left out here. No sequences are given here. The record does not give: the amount of reagent, the time to read-out.

STK3 scored robust z-score, knock-down alone 0.468; viability, knock-down alone 0.958.
PASK gave robust z-score, knock-down alone 1.05; viability, knock-down alone 0.995.
With knock-down of CDADC1 the results were robust z-score, knock-down alone -0.459; viability, knock-down alone 0.898.
XYLB showed robust z-score, knock-down alone -0.817; viability, knock-down alone 0.875.
KHK gave robust z-score, knock-down alone 1.13; viability, knock-down alone 1.
PIK3CD showed robust z-score, knock-down alone -0.142; viability, knock-down alone 0.919.
Knock-down of CERT1 gave: robust z-score, knock-down alone 1.13; viability, knock-down alone 1.
Silencing of TSSK2 gave: robust z-score, knock-down alone -0.382; viability, knock-down alone 0.903.
With knock-down of STK24 the results were robust z-score, knock-down alone -0.805; viability, knock-down alone 0.876.
PHKG1 showed robust z-score, knock-down alone 0.129; viability, knock-down alone 0.936.
Depletion of NR4A2 gave: robust z-score, knock-down alone -0.0716; viability, knock-down alone 0.923.
Depletion of PI4K2A resulted in: robust z-score, knock-down alone 0.645; viability, knock-down alone 0.969.
PRKAB2 scored robust z-score, knock-down alone -0.957; viability, knock-down alone 0.866.
Against RPS6KA1 the deposit lists robust z-score, knock-down alone -0.352; viability, knock-down alone 0.905.
Silencing of ALPK1 came out at: robust z-score, knock-down alone 1.13; viability, knock-down alone 1.
CDKN2C showed robust z-score, knock-down alone -0.737; viability, knock-down alone 0.88.
MAPK4 gave robust z-score, knock-down alone 0.28; viability, knock-down alone 0.946.
PRKAR1A showed robust z-score, knock-down alone 1.06; viability, knock-down alone 0.996.
After knock-down of GUCY2D, the screen gave robust z-score, knock-down alone -2.84; viability, knock-down alone 0.746.
After knock-down of IRAK3, the screen gave robust z-score, knock-down alone -0.634; viability, knock-down alone 0.887.
Knock-down of PAK6 came out at: robust z-score, knock-down alone 1.13; viability, knock-down alone 1.
Depletion of CDK5 gave: robust z-score, knock-down alone 0.347; viability, knock-down alone 0.95.
After knock-down of ADCK1, the screen gave robust z-score, knock-down alone -0.382; viability, knock-down alone 0.903.
For PANK1, the entry reads robust z-score, knock-down alone 1.13; viability, knock-down alone 1.
Depletion of PTK6 gave: robust z-score, knock-down alone 0.411; viability, knock-down alone 0.954.
DYRK1B scored robust z-score, knock-down alone 0.356; viability, knock-down alone 0.95.
EPHA10 gave robust z-score, knock-down alone 1.13; viability, knock-down alone 1.
Knock-down of PRKCI resulted in: robust z-score, knock-down alone -0.366; viability, knock-down alone 0.904.
Silencing of MAP3K12 resulted in: robust z-score, knock-down alone 0.0299; viability, knock-down alone 0.93.
With knock-down of RIPK4, the record shows robust z-score, knock-down alone 1.13; viability, knock-down alone 1.
Silencing of MAP4K4 came out at: robust z-score, knock-down alone -1.72; viability, knock-down alone 0.817.
Silencing of SYK came out at: robust z-score, knock-down alone -3.67 (active); viability, knock-down alone 0.692.
After knock-down of RFK, the record shows robust z-score, knock-down alone 0.112; viability, knock-down alone 0.935.
After knock-down of PCK2, the screen gave robust z-score, knock-down alone 1.13; viability, knock-down alone 1.
For CSNK1D the deposit lists robust z-score, knock-down alone 0.88; viability, knock-down alone 0.984.
CDK11B showed robust z-score, knock-down alone 0.667; viability, knock-down alone 0.97.

Reformatted: 4 of the entries above.
RFK
- robust z-score, knock-down alone: 0.112
- viability, knock-down alone: 0.935

PCK2
- robust z-score, knock-down alone: 1.13
- viability, knock-down alone: 1

CSNK1D
- robust z-score, knock-down alone: 0.88
- viability, knock-down alone: 0.984

CDK11B
- robust z-score, knock-down alone: 0.667
- viability, knock-down alone: 0.97
